Results as given in paper doi:10.1101/2024.04.17.589660.

Molecular target: M2-tagged BatR (3xFLAG-BatR, PA3049) (P. aeruginosa PAO1)
Assay: affinity purification with mass spectrometry

B1: Glycerol phosphate kinase (GlpK, PA3582), endogenous (enzyme, UniProt Q51390 1-505)
chain: MTDKHNKKYVVALDQGTTSSRAIVFDRDANVVSQAQREFAQFYPQAGWVEHDPMEIWATQSSTLVEALAQASIEHDQVAAIGITNQRETTVVWDRHSGRPIHNAIVWQCRRSAAICAQLKRDGLEDYIRETTGLVTDPYFSGTKLKWILDNVEGARERARNGDLLFGTIDTWLIWKLTEGKVHVTDYTNASRTMLFNIHSRDWDARMLEVLDIPRSMLPEVRNSSEVYGNARIGGVGGGELPIAGIAGDQQAALFGQMCVEPGQAKNTYGTGCFLLMHTGDKAVKSTHGLLTTIACGPRGEVGYALEGAVFNGGSTVQWLRDELKVINDSFDSEYFATKVKDSNGVYLVPAFTGLGAPYWDPYARGAVFGLTRGVKADHLIRATLESIAYQTRDVLDAMQRDAGERLRALRVDGGAVANNFLMQFQADILGTRVERPVMRETTALGAAYLAGLACGFWSSLDELKSKAVIERVFEPECDEPRREKLYAGWKKAVERTRGWDDGEL
For B1, the binding was “binds”.

No constants are given. Whether binding was seen depends on the method and setting. Binding seen in cells or lysates may run through a third protein. A yes stands for co-enrichment or nearness to the bait. Other partners may have been found.
